In PubChem BioAssay AID504861 (Broad Institute, 2011) one finds activity change, negative = cytotoxicity data, which are given here for 58 compounds.

Screen size: about 1,200 compounds; about 290 (24%) were called active. Roughly 3% stayed inconclusive and do not appear here.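 Rule for the calls: active = compounds lowering cell viability signal with fitted half-maximal concentration at most ten times their highest tested concentration; inconclusive = flat fit with 30 to 70% signal loss, or poor fit; inactive = the rest.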 The entries are a selection whose mix differs from that of the whole data set. Entries with a potency or affinity are not part of this list.

A short description of the assay: HEK293T cell viability reduction, dose response, cytotoxicity control for LMP1 NF-kB inhibitor project, CellTiter-Glo luminescence, cherry-picks (AID 504861). To be noted: CellTiter-Glo ATP luminescence, 48 h; at 26 µM (top of the series).
`COc1ccc(S(=O)(=O)NC(CC(=O)NCc2ccco2)C(C)C)cc1` (stereo not drawn): the activity change, negative = cytotoxicity was inactive: 7.05%. Next, `COCCNC(=O)NC12CC3(C)CC(C)(CC(C)(C3)C1)C2`: inactive: 8.53%.

For `COc1ccc(-c2csc3ncnc(Sc4nnnn4C)c23)cc1`, the activity change, negative = cytotoxicity was inactive: 1.75%. `CC(C)(C)n1nc(-c2ccc(Cl)cc2)c2c(N)ncnc21`: the activity change, negative = cytotoxicity was inactive: 5.92%. Next, `Cc1ccnc(SCCn2c(N3CCN(c4ccccc4)CC3)nc3c2c(=O)[nH]c(=O)n3C)n1`: inactive: 17.5%; `COc1ccc(C(=O)CN(CCC(=O)O)S(=O)(=O)c2ccc([N+](=O)[O-])cc2)cc1`: inactive: 11.7%. The value for `CC(=O)c1ccccc1OCC(=O)Nc1cccc(S(=O)(=O)N2CCCC2)c1` was inactive: 11.5%; that for `O=C(NCc1ccco1)C1CC(=O)N(c2cccc(Cl)c2)C1` (stereo not drawn) was inactive: -0.584%; that for `CC[C@]1(C(=O)OC)[C@H]2C(=O)N(Cc3ccccc3)C(=O)[C@H]2[C@H]2CN=C(SCc3ccc(C#N)cc3)N21` was inactive: -4.07%. Next, `COC(=O)CN(c1ccccc1F)S(=O)(=O)c1ccc(C)cc1`: inactive: 1.16%; `CN(C)/C=C/C(=O)c1ccc2noc(-c3ccccc3)c2c1`: inactive: 9.21%. `NC(=O)c1ncn([C@@H]2O[C@H](CO)[C@@H](O)[C@H]2O)n1`: the activity change, negative = cytotoxicity was inactive: 12.4%.

On to `O=C1/C(=C/c2cccnc2)SC(=S)N1Cc1ccco1`, for which the activity change, negative = cytotoxicity was inactive: 5.5%. Next, `COc1ccc(-c2csc(Nc3cccc(C)n3)n2)cc1OC`: inactive: 24.9%. For `Cc1cccc(-n2c(O)c(C=Nc3c(C)n(C)n(-c4ccccc4)c3=O)c3ccccc3c2=O)n1`, the activity change, negative = cytotoxicity was inactive: 2%. Next, `O=C1C=Cc2cccc3ccc(O)c1c23`: inactive: -9.9%.

On to `Fc1cccc(Cl)c1/C=N/n1c(-c2cccnc2)n[nH]c1=S`, for which the activity change, negative = cytotoxicity is inactive: 6.12%. The value for `CN=C1S/C(=C\c2ccc(O)c(Br)c2)C(=O)N1C` was inactive: 6.54%; that for `Cn1cc(SCC(=O)NCC2CCCO2)c2ccccc21` (stereo not drawn) was inactive: 8.72%; that for `CS(=O)(=O)Nc1ccc(C2=NN(S(C)(=O)=O)C(c3ccccc3)C2)cc1` (stereo not drawn) was inactive: -1.16%. With `Cc1cc(C)n2nc(CC(=O)NC3CCCCCC3)nc2n1`, the activity change, negative = cytotoxicity is inactive: 8.73%. Next, `CCOC(=O)c1ccc(NC(=O)CSc2nc(N3CCOCC3)nc(N3CCOCC3)n2)cc1`: inactive: -0.033%. `O=C1C2CCCN2c2ccc(S(=O)(=O)N3CCOCC3)cc2N1Cc1ccccc1F` (stereo not drawn): the activity change, negative = cytotoxicity was inactive: 8.51%.

As to `CCSc1nc2ccc(OC)cc2cc1C#N`, the activity change, negative = cytotoxicity is inactive: 5.12%. The value for `CCC(Oc1ccccc1)C(=O)NC1CCSC1=O` (stereo not drawn) was inactive: 11.1%; that for `c1cncc(CNc2ncnc3ccc(-c4ccoc4)cc23)c1` was inactive: 3.52%; that for `COc1ccc(CNC(=O)N2[C@H]3CC[C@@H]2C=C(c2ccc(F)cc2OCc2ccccc2)C3)cc1OC` was inactive: 8.66%.

Turning to `C[C@]12CC[C@@H]3c4ccc(OS(=O)(=O)O)cc4CC[C@H]3[C@@H]1CCC2=O`, the activity change, negative = cytotoxicity was inactive: 9.47%.

For `COc1cc2c(CCNC(C)=O)c[nH]c2cc1Cl`, the activity change, negative = cytotoxicity is inactive: 11.7%. For the compound `CCCC(=O)C1=C(O)C(C(=O)OC)C(C)(C)CC1=Nc1ccncc1` (stereo not drawn), the activity change, negative = cytotoxicity is inactive: -1.96%. Next, `CC(C(=O)N=Nc1c(O)[nH]c2ccccc12)n1cnc2ccccc2c1=O` (stereo not drawn): inactive: 1.48%. The value for `OCCCNc1nccc(-c2cc(Nc3cccc(Cl)c3)ncn2)n1` was inactive: -9.76%. Next, `COc1cc(OC)cc(-c2c(C#Cc3ccsc3)c3cc(-c4cc(OC)c(OC)c(OC)c4)ccc3n2C)c1`: inactive: 9.6%.

On to `COc1ccc(Nc2oc(COc3ccc(Cl)cc3)nc2C#N)cc1`, for which the activity change, negative = cytotoxicity is inactive: 3%. The value for `O=c1c(O)c(-c2ccc(O)c(O)c2)oc2cc(O)cc(O)c12` was inactive: -6.16%; that for `Cc1ccnc(N/C=C(/NC(=O)c2ccccc2)C(=O)N/N=C\c2ccc(F)cc2)n1` was inactive: 4.61%; that for `COc1ccc(S(=O)(=O)N2CCC(C(=O)NC3CC3)CC2)cc1OC` was inactive: 3.64%.

As to `CN(CCNC(=O)C1CCN(S(=O)(=O)N2CCOCC2)CC1)CCc1ccccc1`, the activity change, negative = cytotoxicity is inactive: 0.046%. Turning to `COc1ccc(C2CC(C(F)(F)F)n3ncc(C(=O)NCc4cccnc4)c3N2)cc1OC` (stereo not drawn), the activity change, negative = cytotoxicity is inactive: 31.2%.

`CCSc1nnc(NC(=O)CSc2nnc(-c3c[nH]c4ccccc34)n2CC)s1`: the activity change, negative = cytotoxicity is inactive: -8.74%. The value for `O=S(=O)(N/N=C/c1ccccc1F)c1ccccc1` was inactive: 10.4%; that for `CC(C)(C)c1ccc(Cn2c(=O)cnc3ccccc32)cc1` was inactive: 0.777%; that for `CN1OC[C@@H]2CN[C@H](c3ccc(-c4cc5ccccc5o4)cc3)C[C@@H]21` was inactive: 0.567%. As to `O=C(C1CCCCC1)N1CCN(c2ncccn2)CC1`, the activity change, negative = cytotoxicity was inactive: 8.2%. The value for `CC(C)C(=O)Nc1ccc(C(=O)N/N=C/c2cc(Br)cc(Br)c2O)cc1` was inactive: 4.48%; that for `CCCCCCc1cc2cc(-c3nnc(-c4ccccc4)o3)c(=O)oc2cc1O` was inactive: 5.44%; that for `COc1ccccc1N1CCN(C(=O)CCC(=O)N2CCN(c3ccc(F)cc3)CC2)CC1` was inactive: -2.9%. The value for `O=c1c([N+](=O)[O-])cn(Cc2ccccc2)c(=O)n1Cc1ccccc1` was inactive: 2.12%. Next, `COCCn1c(SCC(=O)NCc2ccco2)nnc1-c1c[nH]c2ccccc12`: inactive: 2.05%; `C[C@@]12C(=O)N(Cc3ccccc3)CC(=O)N1[C@H](/C=C/c1ccccc1)[C@@H]1C(=O)N(c3ccccc3)C(=O)[C@@H]12`: inactive: 5.94%. As for `Cc1cc(C)nc(SCC(=O)OCN2C(=O)c3ccccc3C2=O)n1`, the activity change, negative = cytotoxicity was inactive: 3.05%. Next, `COc1ccc(/C=N/NC(=O)COc2ccccc2-c2ccccc2)cc1`: inactive: -5.26%; `CN(C)CC(C)(C)CNS(=O)(=O)c1ccc(OC(F)(F)F)cc1`: inactive: 12.1%. Next, `CC(C)Cc1ccc([C@H](C)C(=O)O)cc1`: inactive: -4.49%. Next, `COC(=O)c1[nH]c2ccc(C)cc2c1NC(=O)NC1CCCCC1`: inactive: -0.499%; `N#CC1=C(N)N2C(=C(C#N)C1c1cccc(Br)c1)Nc1ccccc12` (stereo not drawn): inactive: 9.3%.

For the compound `Cc1cc(NC(=O)c2ccc3c(c2)OCCO3)no1`, the activity change, negative = cytotoxicity is inactive: 7.18%. Next, `O=C(/C=C/Nc1ccc(F)cc1Br)c1ccccc1`: inactive: -5.49%.
